Test results from PubChem BioAssay AID2685 (National Center for Advancing Translational Sciences (NCATS), 2010).
This is one part of the list. The main result of the screen is listed elsewhere. These columns were measured beside it and carry no call. The list favours compounds with an active or inconclusive main result. The note in brackets gives the kind of curve behind each potency; many fits are weak.

Test: qHTS Assay for Lipid Storage Modulators in Drosophila S3 Cells;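 on cell number change: cells counted by Cell Tracker Red CMTPX staining in the red channel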
Conditions: BODIPY lipid droplet fluorescence, 18-24 h; for cell number change: measured here: cell count max response, cells fed with added oleic acid
Summary of the method: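 Drosophila S3 cells loaded with oleic acid (400 uM, as added) and compounds at several concentrations; lipid droplets imaged by 488-nm laser-scanning cytometry, 500–530 nm intensity and object ratio to cell channel. Percent activity normalized to 20 uM Triacsin C.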

[1] = measured here: cell number channel AC50, cells fed with added oleic acid
[2] = measured here: lipid fluorescence (Fed channel) AC50, cells fed with added oleic acid

Row | SMILES | cell number change | AC50 [1] | AC50 [2]
1 | CC(Oc1cccc(Cl)c1)C(=O)Nc1ccc(S(=O)(=O)N(C)C2CCN(C)CC2)cc1 (stereo unspecified) | 6.43% | 0.517 µM [falling, full curve] | –
2 | Cc1cccc(C)c1NC(=O)CCCSc1nc2ccccc2s1 | 3.35% | – | 0.82 µM [rising, partial curve, poor fit]
3 | COC(=O)c1ccc(C(=O)OC)c(NC(=O)N2c3ccccc3Sc3ccccc32)c1 | -52.6% | 23.1 µM [falling, partial curve, poor fit] | –
4 | O=S(=O)(Nc1cccc2cn[nH]c12)c1ccc(F)cc1 | 0.391% | – | 0.0184 µM [rising, full curve]
5 | COc1ccccc1C(=O)NNC(=O)C(=O)N1CCCCC1 | -25.8% | – | –
6 | Cc1ccc(C(=O)Cn2nc(C)c([N+](=O)[O-])c2C)c(C)c1 | 42% | 29.1 µM [rising, single point] | 29.1 µM [rising, single point]
7 | COc1ccccc1-c1cc(C(F)(F)F)nc(S(=O)(=O)CCCC(=O)Nc2cccnc2Cl)n1 | -52.4% | – | –
8 | COC(=O)c1ccccc1NC(=O)c1ccc(-c2ccccc2F)o1 | -4.12% | – | 0.0259 µM [rising, full curve]
9 | COc1ccc(NC(=O)CCCNC(=O)Cn2cnc3sc(C)c(C)c3c2=O)cc1Cl | 20.1% | – | 4.11 µM [rising, full curve]
10 | c1ccc(OCc2noc(CN3CC[C@@H]4CCCC[C@H]4C3)n2)cc1 | 8.88% | – | –
11 | CCOCCCN(Cc1cc2cc(C)cc(C)c2[nH]c1=O)C(=O)N(CC)CC | -19.4% | 0.411 µM [rising, single point] | –
12 | O=C(c1ccccc1)c1coc2c1C(=O)c1ccccc1C2=O | -36.5% | 0.13 µM [falling, full curve] | 20.6 µM [falling, single point]
13 | CC(C)CC(NS(=O)(=O)c1cccc(C(=O)O)c1)C(=O)O (stereo unspecified) | -14.2% | – | –
14 | CN(C)c1ccc(-c2nn3c(-c4ccc(Cl)cc4)nnc3s2)cc1 | -10.4% | – | –
15 | c1ccc2c(c1)OCCc1c-2[nH]c2ccccc12 | 21.8% | – | 29.1 µM [falling, single point]
16 | COc1cc(OC)c(NC(=O)CCNC(=O)Cn2ccc3ccccc3c2=O)cc1Cl | -18.1% | – | –
17 | COc1ccc(N2C(=O)CSC2c2cccc(OC)c2OC)cc1 (stereo unspecified) | 16.1% | – | 0.103 µM [falling, full curve, poor fit]
18 | COc1ccc(C(=O)COC(=O)CCC(=O)Nc2ccc(C(C)=O)cc2)cc1 | 22.1% | – | –
19 | O=C(Cn1nnc(-c2ccccc2)n1)N/N=C/c1cc([N+](=O)[O-])c(Cl)cc1Cl | -11.2% | – | –
20 | Cc1ccc(-c2csc(NC(=S)NC(=O)c3cccs3)n2)cc1 | 1.29% | – | 18.4 µM [rising, single point]

Three compounds already listed, arranged by number of heavy atoms, ascending.
Row | SMILES | cell number change | AC50 [1] | AC50 [2]
17 | COc1ccc(N2C(=O)CSC2c2cccc(OC)c2OC)cc1 (stereo unspecified) | 16.1% | – | 0.103 µM [falling, full curve, poor fit]
11 | CCOCCCN(Cc1cc2cc(C)cc(C)c2[nH]c1=O)C(=O)N(CC)CC | -19.4% | 0.411 µM [rising, single point] | –
9 | COc1ccc(NC(=O)CCCNC(=O)Cn2cnc3sc(C)c(C)c3c2=O)cc1Cl | 20.1% | – | 4.11 µM [rising, full curve]

Later entries:

Row | SMILES | cell number change | AC50 [1] | AC50 [2]
21 | CCOc1ccc(N2CC(C(=O)Nc3ccncc3)CC2=O)cc1 (stereo unspecified) | 17% | – | 6.51 µM [rising, single point]
22 | CCOC(=O)CN(c1ccccc1C)S(=O)(=O)c1ccc(Cl)cc1 | 42.7% | 10.3 µM [rising, partial curve] | –
23 | c1ccc(-c2noc(CC3CCCCC3)n2)cc1 | -22% | – | 35.5 µM [falling, single point]
24 | Cc1ccc2nc(-c3ccc(NC(=O)COC(=O)c4ccc([N+](=O)[O-])o4)cc3)sc2c1 | 36.4% | 7.31 µM [rising, partial curve, poor fit] | 4.11 µM [rising, single point]
25 | O=C(CN1C(=O)C2CC=CCC2C1=O)OCC(=O)c1ccc(Cl)c([N+](=O)[O-])c1 (stereo unspecified) | -9.38% | – | 29.1 µM [falling, single point]
26 | O=C(NC(=S)Nc1ccccc1N1CCCCC1)c1ccc(F)cc1 | 28.7% | – | 29.1 µM [rising, single point]
27 | CS(=O)(=O)N1CCC(NC(=O)Nc2ccc(OC(F)(F)F)cc2)CC1 | -11.9% | 0.651 µM [rising, partial curve] | 0.092 µM [rising, partial curve]
28 | O=C(Cc1ccccc1)Nc1ccc2[nH]ncc2c1 | 5.52% | – | 1.64 µM [rising, partial curve]
29 | COc1ccccc1CN1CCNC(=O)C1CC(=O)N(C)Cc1nc(C)cs1 (stereo unspecified) | 5.94% | – | –
30 | C=CCc1cc(/C=C2/NC(=O)N(CC(=O)OC)C2=O)cc(OC)c1O | 4.35% | – | 3.66 µM [falling, single point]
31 | CCCn1cc(S(=O)(=O)c2ccccc2)c(=O)c2cc(F)c(N3CCN(C)CC3)cc21 | 24.8% | – | 0.82 µM [rising, partial curve, poor fit]
32 | COCC1CCCCN1C(=O)C1CCN(c2nc(-c3ccccc3)nc3c2CCC3)CC1 (stereo unspecified) | -3.96% | 5.8 µM [falling, partial curve] | –
33 | Nc1c(C(=O)NCc2ccco2)nnn1CC(=O)Nc1ccc2c(c1)OCO2 | – | – | 0.82 µM [rising, single point]
34 | O=C(CCc1ccccc1)NC(=S)NCc1ccco1 | 20.6% | 0.92 µM [falling, full curve] | 0.58 µM [falling, full curve]
35 | COCCn1c(SCC(=O)/C=C2\N(C)c3ccccc3C2(C)C)nnc1-c1ccncc1 | – | 2.31 µM [rising, partial curve] | 1.84 µM [rising, full curve]
36 | CCC(C)(C)NC(=O)C(c1ccc(OC)cc1)N(C(=O)CCC(=O)Nc1cc(C)on1)c1ccccc1F (stereo unspecified) | 18.3% | – | 0.326 µM [rising, partial curve]
37 | Cc1ccc(-n2c(SCC3CNC(=O)O3)nnc2-c2ccccc2)cc1C (stereo unspecified) | 11.1% | – | 14.6 µM [rising, single point]
38 | CCOC(=O)C(CCCOc1cccc(CC)c1)C(=O)OCC | 116% | 20.6 µM [rising, single point] | 0.82 µM [falling, single point]
39 | O=C(O)C(NS(=O)(=O)c1ccc(F)cc1)c1ccccc1 (stereo unspecified) | -93% | 18.4 µM [falling, single point] | –
40 | CCCCN(C(C)=O)C1CC(=O)N(c2ccc(OCCC)cc2)C1=O (stereo unspecified) | 14.1% | – | 25.9 µM [rising, single point]
